According to article PMC10223333:
These are yes or no findings as the source states them, for the method shown. In cells and extracts the contact can be indirect.

Amino acid sequences for entries named in this document (tags omitted).
UniProt Q5JSL3: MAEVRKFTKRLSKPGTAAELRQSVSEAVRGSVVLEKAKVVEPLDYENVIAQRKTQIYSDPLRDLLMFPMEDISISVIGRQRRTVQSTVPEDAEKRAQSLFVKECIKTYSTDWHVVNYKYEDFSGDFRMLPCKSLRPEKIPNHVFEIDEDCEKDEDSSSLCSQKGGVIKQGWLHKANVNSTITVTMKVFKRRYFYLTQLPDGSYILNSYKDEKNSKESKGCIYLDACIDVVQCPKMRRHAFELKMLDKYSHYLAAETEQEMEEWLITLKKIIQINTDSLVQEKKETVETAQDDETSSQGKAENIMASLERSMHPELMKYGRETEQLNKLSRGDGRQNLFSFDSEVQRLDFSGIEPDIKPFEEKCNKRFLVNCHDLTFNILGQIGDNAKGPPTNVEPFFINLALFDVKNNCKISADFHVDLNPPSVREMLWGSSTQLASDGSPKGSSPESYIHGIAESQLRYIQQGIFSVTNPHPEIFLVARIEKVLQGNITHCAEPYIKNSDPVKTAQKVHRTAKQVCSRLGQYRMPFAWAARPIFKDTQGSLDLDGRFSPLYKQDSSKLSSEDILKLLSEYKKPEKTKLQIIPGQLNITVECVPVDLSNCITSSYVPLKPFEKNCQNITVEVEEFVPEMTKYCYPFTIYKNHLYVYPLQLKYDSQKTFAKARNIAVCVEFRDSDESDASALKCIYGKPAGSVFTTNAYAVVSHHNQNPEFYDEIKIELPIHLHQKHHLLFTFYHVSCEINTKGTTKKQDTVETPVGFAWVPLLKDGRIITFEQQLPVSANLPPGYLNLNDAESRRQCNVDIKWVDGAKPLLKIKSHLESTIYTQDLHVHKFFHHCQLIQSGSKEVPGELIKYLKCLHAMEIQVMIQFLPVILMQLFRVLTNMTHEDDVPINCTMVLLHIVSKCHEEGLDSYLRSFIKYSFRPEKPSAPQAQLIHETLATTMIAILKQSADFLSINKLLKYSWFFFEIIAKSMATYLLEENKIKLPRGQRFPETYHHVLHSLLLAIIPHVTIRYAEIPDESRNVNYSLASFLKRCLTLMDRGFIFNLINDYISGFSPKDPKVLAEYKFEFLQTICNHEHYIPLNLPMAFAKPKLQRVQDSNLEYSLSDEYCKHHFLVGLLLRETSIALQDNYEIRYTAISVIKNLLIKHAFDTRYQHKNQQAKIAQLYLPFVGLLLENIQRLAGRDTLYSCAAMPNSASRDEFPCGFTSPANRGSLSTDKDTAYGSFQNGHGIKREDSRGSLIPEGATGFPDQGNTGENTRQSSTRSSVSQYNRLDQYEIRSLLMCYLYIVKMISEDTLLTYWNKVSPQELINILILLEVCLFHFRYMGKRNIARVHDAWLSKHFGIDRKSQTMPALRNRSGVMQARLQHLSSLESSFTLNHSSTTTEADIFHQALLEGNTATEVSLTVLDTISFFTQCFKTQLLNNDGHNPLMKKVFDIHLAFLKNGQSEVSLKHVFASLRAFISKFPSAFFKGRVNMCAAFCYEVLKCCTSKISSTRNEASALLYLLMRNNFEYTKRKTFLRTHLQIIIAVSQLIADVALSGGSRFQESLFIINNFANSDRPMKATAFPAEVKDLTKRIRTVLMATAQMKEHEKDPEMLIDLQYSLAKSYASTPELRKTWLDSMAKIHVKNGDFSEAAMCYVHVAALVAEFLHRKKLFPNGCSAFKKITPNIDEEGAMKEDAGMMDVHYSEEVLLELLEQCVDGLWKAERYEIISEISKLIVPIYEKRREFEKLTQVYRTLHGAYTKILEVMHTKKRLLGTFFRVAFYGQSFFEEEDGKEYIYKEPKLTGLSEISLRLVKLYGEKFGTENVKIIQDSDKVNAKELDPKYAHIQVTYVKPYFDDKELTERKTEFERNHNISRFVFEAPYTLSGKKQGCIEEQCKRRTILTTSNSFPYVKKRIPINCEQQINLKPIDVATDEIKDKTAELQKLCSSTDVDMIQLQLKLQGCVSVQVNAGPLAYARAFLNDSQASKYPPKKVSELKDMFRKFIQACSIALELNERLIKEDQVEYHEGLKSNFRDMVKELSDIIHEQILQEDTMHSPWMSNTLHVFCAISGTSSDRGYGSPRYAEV
UniProt P45973: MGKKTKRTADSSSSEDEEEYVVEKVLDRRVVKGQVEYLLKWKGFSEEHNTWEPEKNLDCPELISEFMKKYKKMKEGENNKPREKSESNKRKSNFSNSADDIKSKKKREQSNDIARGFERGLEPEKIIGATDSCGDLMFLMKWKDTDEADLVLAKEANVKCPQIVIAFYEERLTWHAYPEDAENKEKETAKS

Molecular target: Halo-tagged DOCK11 (dedicator of cytokinesis 11) (UniProt Q5JSL3)
Test: co-IP

- binding: no binding
Substance: heterochromatin protein 1 alpha (HP1α) (from UniProt P45973 1-191)
